Some results were stated once for a whole list of compounds, not compound by compound.
Tested on: Clostridium autoethanogenum DSM23693
Experiment: Toxicity of acetone and isopropanol on growing cultures
Assay type: cell-based
Settings: 50 ml PETC media in serum bottles, added to growing cultures
From the text: Several metabolites such as alcohols (ethanol and butanol) or acids (acetic acid and butyric acid) are known to be toxic for bacteria in high concentrations and thus limit their biotechnological production [Alsaker K V, Parades C, Papoutsakis E T: Metabolite stress and tolerance in the production of biofuels and chemicals—systems analysis of butanol, butyrate, and Acetate Stresses in the Anaerobe Clostridium acetobutylicum. Biotechnol Bioeng, 2009, 105: 1131-1147]. To see if acetone and isopropanol have a toxic effect on cultures, growth experiments were carried out in 50 ml PETC media (Table 2) in serum bottles, adding different concentrations of acetone (FIG. 12) and isopropanol (FIG. 13) to growing cultures of Clostridium autoethanogenum DSM23693.

SMILES: CC(C)O [isopropanol]
- concentration in presence of which cell growth was visible: ≤ 5%

Reference: US9365868B2, “Fermentation process for producing isopropanol using a recombinant microorganism” (LANZATECH NEW ZEALAND LIMITED, priority 2011, dated 2016)
